The record followed here is patent publication US20220226267A1.

Protein sequences, listed by entry. Tags and fused reporters are not part of them.
UniProt P31749: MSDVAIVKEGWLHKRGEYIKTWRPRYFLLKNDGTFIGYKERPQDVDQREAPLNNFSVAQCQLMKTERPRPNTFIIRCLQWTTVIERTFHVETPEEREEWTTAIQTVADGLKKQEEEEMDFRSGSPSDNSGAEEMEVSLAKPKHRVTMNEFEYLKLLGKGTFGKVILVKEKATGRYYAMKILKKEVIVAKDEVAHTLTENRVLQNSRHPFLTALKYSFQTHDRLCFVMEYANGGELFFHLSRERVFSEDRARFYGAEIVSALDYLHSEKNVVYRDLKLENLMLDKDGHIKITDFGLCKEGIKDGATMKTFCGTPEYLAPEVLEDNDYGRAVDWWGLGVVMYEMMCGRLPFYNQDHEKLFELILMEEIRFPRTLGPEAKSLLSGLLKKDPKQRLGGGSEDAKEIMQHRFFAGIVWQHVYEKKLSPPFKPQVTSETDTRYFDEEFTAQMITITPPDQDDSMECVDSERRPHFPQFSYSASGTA
UniProt P31750: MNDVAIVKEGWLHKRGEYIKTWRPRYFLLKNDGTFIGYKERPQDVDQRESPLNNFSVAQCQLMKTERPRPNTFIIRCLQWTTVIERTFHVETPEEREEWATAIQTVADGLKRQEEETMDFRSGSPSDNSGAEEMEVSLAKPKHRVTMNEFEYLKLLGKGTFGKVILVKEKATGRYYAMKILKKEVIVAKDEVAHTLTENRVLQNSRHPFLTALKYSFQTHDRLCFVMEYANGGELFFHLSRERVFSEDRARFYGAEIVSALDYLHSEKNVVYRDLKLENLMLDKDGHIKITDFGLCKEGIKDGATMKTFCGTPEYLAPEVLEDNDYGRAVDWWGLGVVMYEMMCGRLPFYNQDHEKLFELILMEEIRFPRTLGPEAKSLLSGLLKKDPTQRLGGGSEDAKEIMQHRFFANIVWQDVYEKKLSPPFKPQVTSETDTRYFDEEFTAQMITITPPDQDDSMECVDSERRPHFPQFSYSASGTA

In experiment [1] the target is AKT (protein kinase B), endogenous in HaCaT cells (UniProt P31749). Description: co-immunoprecipitation from HaCaT cells stimulated with TNF-α and IL-17A.
For experiment [2] the target is unchanged. Description: co-immunoprecipitation from HaCaT cell lysate with CaMK4 antibody, Western blot with AKT antibody. (In western blotting, separated proteins are transferred to a membrane and probed.)
Experiment [3] deals with AKT (protein kinase B), endogenous in mouse bone marrow-derived macrophages (BMDMs) (mouse) (UniProt P31750). Description: co-immunoprecipitation from BMDMs.

No constants are given. Whether binding was seen depends on the method and setting. Binding seen in cells or lysates may run through a third protein. Some results given as binding are weak or reduced against the parent protein; the word gives no strength.

B1: Calcium/calmodulin-dependent protein kinase IV (CaMK4), endogenous in HaCaT cells (enzyme, UniProt Q16566 1-473, looked up)
chain: MLKVTVPSCSASSCSSVTASAAPGTASLVPDYWIDGSNRDALSDFFEVESELGRGATSIVYRCKQKGTQKPYALKVLKKTVDKKIVRTEIGVLLRLSHPNIIKLKEIFETPTEISLVLELVTGGELFDRIVEKGYYSERDAADAVKQILEAVAYLHENGIVHRDLKPENLLYATPAPDAPLKIADFGLSKIVEHQVLMKTVCGTPGYCAPEILRGCAYGPEVDMWSVGIITYILLCGFEPFYDERGDQFMFRRILNCEYYFISPWWDEVSLNAKDLVRKLIVLDPKKRLTTFQALQHPWVTGKAANFVHMDTAQKKLQEFNARRKLKAAVKAVVASSRLGSASSSHGSIQESHKASRDPSPIQDGNEDMKAIPEGEKIQGDGAQAAVKGAQAELMKVQALEKVKGADINAEEAPKMVPKAVEDGIKVADLELEEGLAEEKLKTVEEAAAPREGQGSSAVGFEVPQQDVILPEY
As for B1, the binding entry in experiment [1] and in experiment [2] was “binds” throughout.

B2: Calcium/calmodulin-dependent protein kinase IV (CaMK4), endogenous in mouse bone marrow-derived macrophages (BMDMs) (enzyme, UniProt P08414 1-469, looked up)
chain: MLKVTVPSCPSSPCSSVTASTENLVPDYWIDGSNRDPLGDFFEVESELGRGATSIVYRCKQKGTQKPYALKVLKKTVDKKIVRTEIGVLLRLSHPNIIKLKEIFETPTEISLVLELVTGGELFDRIVEKGYYSERDARDAVKQILEAVAYLHENGIVHRDLKPENLLYATPAPDAPLKIADFGLSKIVEHQVLMKTVCGTPGYCAPEILRGCAYGPEVDMWSVGIITYILLCGFEPFYDERGDQFMFRRILNCEYYFISPWWDEVSLNAKDLVKKLIVLDPKKRLTTFQALQHPWVTGKAANFVHMDTAQKKLQEFNARRKLKAAVKAVVASSRLGSASSSHTSIQENHKASSDPPSTQDAKDSTDLLGKKMQEEDQEEDQVEAEASADEMRKLQSEEVEKDAGVKEEETSSMVPQDPEDELETDDPEMKRDSEEKLKSVEEEMDPMTEEEAPDAGLGVPQQDAIQPEY
Regarding B2, the binding result in experiment [3] was “binds”.
